Reference: US20110053916A1 (Vertex Pharmaceuticals Incorporated, priority 2009, published 2011)
For at least one compound, name, drawing or mass did not settle the structure.

Test system: Mycobacterium tuberculosis H37Ra
Assay: Mycobacterium tuberculosis growth inhibition assay (microtiter dilution, resazurin reduction)
Type: cell-based
Settings: 7H9 broth, 9 days + 24 h resazurin, lowest concentration inhibiting resazurin reduction by >70%, several symbols in a cell = repeat determinations
Procedure: Compounds were screened for their ability to inhibit the growth of Mycobacterium tuberculosis H37Ra using a standard microtiter dilution method with reduction of the dye resazurin as an indicator of growth. The growth assay was carried out in standard Mycobacterium liquid growth medium, 7H9Broth (BD Biosciences, Franklin Lakes, N.J.) supplemented with 10% ADC enrichment (BD Biosciences, Franklin Lakes, N.J.). The medium was inoculate with ˜1×10^6 cells/milliliter of Mycobacterium tuberculosis H37Ra grown on a the surface of a growth medium solid medium (7H11 agar [BD Biosciences, Franklin Lakes, N.J.] supplemented with 10% OADC enrichment [BD Biosciences, Franklin Lakes, N.J.]).
Two-fold serial dilutions (either 7 or 11-step series) of test compounds in DMSO were dispensed into 96-well assay plates (sterile, black sided, clear bottom wells) in a volume of 1 microliter. One microliter of DMSO was dispensed into a control well at the end of each series. One-hundred microliters of the bacterial cell suspension in growth medium was dispensed into each test well containing a DSMO solution of compound. The assay plates were covered with a fitted lid and incubated at 37° C. in a humidified chamber for 9 days. On the ninth day 30 microliters of a 0.01% solution of resazurin (Sigma Chemical Co., St. Louis, Mo.) in distilled water was added to each well and the baseline fluorescence of resazurin was determined by measuring well fluorescence at an excitation wavelength of 492 nm and an emission wavelength of 595 nm on a Spectrafluor Plus (Tecan, Durham, N.C.) instrument. The assay plates were returned to the incubation chamber for 24 hours. After 24 hours, the fluorescence of the wells (resulting from the reduction of resazurin dye) was measured at an excitation wavelength of 492 nm and an emission wavelength of 595 nm on the Spectrafluor Plus instrument. The minimum inhibitory concentration (MIC) was called as the lowest concentration of compound that inhibited the reduction of resazurin by >70%, as compared to the DMSO (untreated) control wells. MIC values are represented as the following values: • A* <1.6 μM • A 1.6 μM<12.5 μM • B** 12.5 μM-25.0 μM • B* 25.0 μM-50.0 μM • B 50.0 μM-100.0 μM • C >100.0 μM

SMILES | MIC values
C/C=C/c1cnc(-c2ccccc2)nc1Nc1cc(C2CC2)[nH]n1 [Compound 11, (E)-N-(5-cyclopropyl-1H-pyrazol-3-yl)-2-phenyl-5-(prop-1-enyl)pyrimidin-4-amine] | B+
Clc1cnc(Nc2ccc3[nH]ncc3c2)nc1Nc1cc(C2CC2)[nH]n1 [Compound 62, 5-chloro-N4-(5-cyclopropyl-1H-pyrazol-3-yl)-N2-(1H-indazol-5-yl)pyrimidine-2,4-diamine] | A+
CC(=O)c1ccc(-c2ncc(Cl)c(Nc3cc(C4CC4)[nH]n3)n2)s1 [Compound 116, 1-(5-(5-chloro-4-(5-cyclopropyl-1H-pyrazol-3-ylamino)pyrimidin-2-yl)thiophen-2-yl)ethanone] | B++, C
CC(C)(C)NS(=O)(=O)c1ccc(-c2ncc(/C=C/CO)c(Nc3cc(C4CC4)[nH]n3)n2)s1 [Compound 218, (E)-N-tert-butyl-5-(4-(5-cyclopropyl-1H-pyrazol-3-ylamino)-5-(3-hydroxyprop-1-enyl)pyrimidin-2-yl)thiophene-2-sulfonamide] | B++
